Measured values from the supplement of paper PMC8866396.
± gives the standard deviation of the averaged measurements. Some of the results follow. Most values lie within the scatter of the assay; repeated measurements hardly agree.

How the values were obtained:
[1] = test system: IL-6-GFP PC-9GR; test: IL-6-GFP fluorescence relative to DMSO control (fraction of control); higher = more IL-6-GFP expression; conditions: compound concentration: 10 uM; treatment time: 48 h
Method: (§1)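 IL-6-GFP-overexpressing PC-9 and PC-9GR EGFR-mutant lung cancer cells (3000 cells/well, 96-well) were treated for 48 h with each compound of the Selleck L2000 library at 10 uM. IL-6-GFP fluorescence was read on a high-content screening system, and viability by CCK-8 absorbance on a parallel plate set. Each value was normalised as compound well / DMSO control well; two independent replicates.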

[2] = test system: IL-6-GFP PC-9; test: as above; conditions: compound concentration: 10 uM; treatment time: 48 h
Method: as §1

| Structure (SMILES) | IL-6-GFP fluorescence [1] | IL-6-GFP fluorescence [2] |
| --- | --- | --- |
| CCC(C)n1ncn(-c2ccc(N3CCN(c4ccc(OCC5COC(Cn6cncn6)(c6ccc(Cl)cc6Cl)O5)cc4)CC3)cc2)c1=O (centres undefined) [Itraconazole] | 0.792 ± 0.15 | 0.958 ± 0.13 |
| CC1(C)SC2C(NC(=O)C(c3ccccc3)S(=O)(=O)[O-])C(=O)N2C1C(=O)[O-].[Na+].[Na+] (centres undefined) [Sulbenicillin Sodium] | 0.897 ± 0.19 | 0.947 ± 0.077 |
| OCC1OC(c2ccc(Cl)c(Cc3ccc(OC4CCOC4)cc3)c2)C(O)C(O)C1O (centres undefined) | 0.92 ± 0.03 | 0.972 ± 0.16 |
| N#CC1CC2CC2N1C(=O)C(N)C12CC3CC(CC(O)(C3)C1)C2.O (centres undefined) [Saxagliptin hydrate] | 0.572 ± 0.5 | 0.901 ± 0.017 |
| Nc1nc(F)nc2c1ncn2C1OC(CO)C(O)C1O (centres undefined) [Fludarabine] | 0.927 ± 0.39 | 1.09 ± 0.014 |
| CC(=O)OC1(C(C)=O)CCC2C3CC(C)C4=CC(=O)C=CC4(C)C3(F)C(O)CC21C (centres undefined) [Fluorometholone Acetate] | 0.823 ± 0.14 | 0.955 ± 0.0099 |
| CC(CCC(=O)[O-])C1CCC2C3C(O)CC4CC(O)CCC4(C)C3CC(O)C12C.[Na+] (centres undefined) [Sodium cholate] | 1.2 ± 0.22 | 0.812 ± 0.067 |
| CC(=O)OCC(=O)C1(O)C(C)CC2C3CCC4=CC(=O)C=CC4(C)C3(F)C(O)CC21C (centres undefined) [Dexamethasone Acetate] | 0.952 ± 0.021 | 0.888 ± 0.24 |
| CCN1CCN(Cc2ccc(Nc3ncc(F)c(-c4cc(F)c5nc(C)n(C(C)C)c5c4)n3)nc2)CC1.CS(=O)(=O)O | 1.12 ± 0.17 | 1.1 ± 0.25 |
| O=C1Nc2ccccc2/C1=C1\Nc2ccccc2C1=O [Indirubin] | 0.813 ± 0.049 | 0.872 ± 0.16 |
| Cl.O=C(OCC(O)CO)c1ccccc1Nc1ccnc2cc(Cl)ccc12 (centres undefined) [Glafenine HCl] | 1.15 ± 0.64 | 1.63 ± 0.33 |
| O=C(O)c1cc(N=Nc2ccc(S(=O)(=O)Nc3ccccn3)cc2)ccc1O [Sulfasalazine] | 0.7945 ± 0.0064 | 0.779 ± 0.27 |
| Cc1cnc(NC(=O)C2=C(O)c3ccccc3S(=O)(=O)N2C)s1 [Meloxicam] | 0.661 ± 0.09 | 0.782 ± 0.098 |
| Cc1nnc(C(C)C)n1C1CC2CCC(C1)N2CCC(NC(=O)C1CCC(F)(F)CC1)c1ccccc1 (centres undefined) [Maraviroc] | 0.777 ± 0.11 | 0.838 ± 0.19 |
| CCC1(O)CC2CN(CCc3c([nH]c4ccccc34)C(C(=O)OC)(c3cc4c(cc3OC)N(C=O)C3C(O)(C(=O)OC)C(OC(C)=O)C5(CC)C=CCN6CCC43C65)C2)C1 (centres undefined) [Vincristine] | 1.23 ± 0.47 | 0.781 ± 0.3 |
| CC(C)=CCOc1ccc(/C=C/C(=O)c2ccc(OCC=C(C)C)cc2OCC(=O)O)cc1 [Sofalcone] | 0.902 ± 0.13 | 0.774 ± 0.14 |
| CN(C)C/C=C/C(=O)Nc1cc2c(Nc3ccc(F)c(Cl)c3)ncnc2cc1OC1CCOC1.O=C(O)/C=C\C(=O)O.O=C(O)/C=C\C(=O)O (centres undefined) [Afatinib (BIBW2992) Dimaleate] | 1.49 ± 0.51 | 1.26 ± 0.085 |
| CC(OCC1(c2ccccc2)CCC2(CCC(=O)N2)CN1)c1cc(C(F)(F)F)cc(C(F)(F)F)c1 (centres undefined) [Rolapitant] | 0.897 ± 0.15 | 0.913 ± 0.15 |
| O=S(=O)([O-])CCS.[Na+] [Mesna] | 0.668 ± 0.2 | 0.854 ± 0.17 |
| CC(=O)OC(C)OC(=O)C(C)c1ccc(-c2ccccc2)c(F)c1 (centres undefined) [Flurbiprofen Axetil] | 0.862 ± 0.017 | 0.693 ± 0.17 |
| CCc1nc(C(N)=O)c(Nc2ccc(N3CCC(N4CCN(C)CC4)CC3)c(OC)c2)nc1NC1CCOCC1 [Gilteritinib (ASP2215)] | 1.12 ± 0.2 | 0.827 ± 0.31 |
| CC(=O)O.CCNC(=O)C1CCCN1C(=O)C(CCCNC(=N)N)NC(=O)C(CC(C)C)NC(=O)C(CC(C)C)NC(=O)C(Cc1ccc(O)cc1)NC(=O)C(CO)NC(=O)C(Cc1c[nH]c2ccccc12)NC(=O)C(Cc1c[nH]cn1)NC(=O)C1CCC(=O)N1 (centres undefined) [Leuprolide Acetate] | 1.08 ± 0.39 | 0.761 ± 0.12 |

Rewritten with each value named: entries from further up.
O=C1Nc2ccccc2/C1=C1\Nc2ccccc2C1=O [Indirubin]
  IL-6-GFP fluorescence [1]: 0.813 ± 0.049; IL-6-GFP fluorescence [2]: 0.872 ± 0.16
Cl.O=C(OCC(O)CO)c1ccccc1Nc1ccnc2cc(Cl)ccc12 (centres undefined) [Glafenine HCl]
  IL-6-GFP fluorescence [1]: 1.15 ± 0.64; IL-6-GFP fluorescence [2]: 1.63 ± 0.33
